Reference: PubChem BioAssay AID493014 (National Center for Advancing Translational Sciences (NCATS), 2011)
Out of some 340,000 compounds screened, about 170 (0.05%) were called active. Inconclusive means that the source gave no clear call. Such entries were picked first, then a sample of the others. Calls come from the whole dose curve; as a rule, active = well fitted inhibition curve with a large enough effect in the signal ratio, with a control signal flat (not every such curve was filed as active); inconclusive = small, poorly fitted or top-dose-only effect, or effect the other way, or a change in a side signal; inactive = flat fitted curve, though single readings scatter; the % refers to the signal ratio. Potencies beside an inconclusive call are fits to weak or partial responses and may not hold up.

Assay: qHTS Assay to Find Inhibitors of Chronic Active B-Cell Receptor Signaling;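 for activity change, negative = inhibition: plate controls were basal doxycycline-induced cells for no effect and cells given 10 µM MG132 for full effect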
Conditions: ABC-DLBCL IkBa-CBG/CBR reporter, luminescence ratio (green luciferase fused to IkBa over red control in TMD8 lymphoma cells), 4 h; activity change, negative = inhibition: at 46.1 µM (top of the series)
Method in brief: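 TMD8 human ABC-DLBCL cells with doxycycline-inducible IκBα–green luciferase fusion and unfused red luciferase, in 0.5% FBS medium; compounds up to 46 uM, 4 h at 37C. Green/red luminescence ratio, filter-overlap corrected, fitted to concentration-response curves.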
Potency is the fitted concentration of half-maximal effect.

Compound | activity change, negative = inhibition | Potency
O=C1c2cnc3nc(SCc4ccc(Cl)cc4)nn3c2CC2c3ccccc3CCN12 (stereo not drawn) | inconclusive: 1.63% | –
Cc1ccc(-c2nc3cccnc3s2)cc1NS(=O)(=O)c1ccc2c(c1)CCCC2 | inconclusive: -13.2% | –
CC(C)=NOc1nc(N(C)C)nc(N2CCOCC2)n1 | inconclusive: 7.35% | –
COc1ccc(NC(=O)COc2cccc3c2CCNC3=O)cc1 | – | inconclusive: 20.6 µM [rising, partial curve, poor fit]
Cc1ccc(S(=O)(=O)N(C)C)cc1-n1c(SCC(=O)Nc2ccc(F)cc2Cl)nc2ccccc2c1=O | inconclusive: 1.91% | –
NC(=O)C[C@H](NC(=O)c1ccc(Cl)cc1)C(=O)OCc1ccccc1 | inactive: -0.732% | –
N#C/C(=C\c1ccccc1[N+](=O)[O-])C(=O)NCc1ccccc1 | inconclusive: 16.4% | –
COc1ccc(C)cc1NC(=O)C1CCN(S(C)(=O)=O)CC1 | inactive: -1.11% | –
COc1ccc2c(c1)O/C(=C\c1ccco1)C2=O | inconclusive: -0.944% | –
O=C(N/N=C/C(Br)=C/c1ccccc1)NC1CCCCC1 | – | inconclusive: 22.4 µM [falling, single point]
CCOc1ccc(C(=O)NNC(=O)CN2C(=O)NC3(CCCC3)C2=O)cc1 | inactive: 2.16% | –
CCc1ccc2nc3sc(C(=O)Nc4nnc(CC)s4)c(N)c3cc2c1 | inconclusive: 25.7% | –
CN1c2ccccc2C(C)(C)C12C=Nc1c(ccc3ccccc13)O2 (stereo not drawn) | inactive: -8.04% | –
CC1CSc2ccccc2NC1=S (stereo not drawn) | inactive: -25.3% | –
CCCN1CCN(C(=O)CCCn2c(C)c3cnn(-c4ccccc4)c(=O)c3c2C)CC1 | inconclusive: 24.6% | –
COc1ccc(C(=O)N2CCN(c3cccc(Cl)c3)CC2)cc1S(=O)(=O)NC1CC1 | inactive: 6.02% | –
O=C1CCC/C(=N\NC(=O)c2ccc(NS(=O)(=O)c3ccc(Br)cc3)cc2)C1 | inconclusive: -9.99% | –
NC(N)=NC(=O)c1nc(Cl)c(N)nc1N | – | inconclusive: 17.8 µM [falling, single point]
Cc1ccc(NC(=O)CNC(=O)c2cccs2)nc1 | – | inconclusive: 18.4 µM [falling, single point]
CC1CCc2c(sc(NC(=O)COC(=O)C3CCCO3)c2C#N)C1 (stereo not drawn) | inconclusive: -0.295% | –
Cc1cccc(N2C(=O)CC(N3CCN(C(=O)c4ccccc4)CC3)C2=O)c1 (stereo not drawn) | inconclusive: -0.0915% | –
COC(=O)C1=C(N)Oc2cc(C)n(CC3CCCO3)c(=O)c2C1c1ccc(Cl)c(Cl)c1 (stereo not drawn) | inactive: 34.6% | –
O=C(c1ccccc1NS(=O)(=O)c1ccc([N+](=O)[O-])cc1[N+](=O)[O-])N1O[C@@H]2C=C[C@H]1C2 | – | inconclusive: 23.1 µM [falling, partial curve, poor fit]

3 entries from above, ordered by length of the SMILES, ascending.
Compound | activity change, negative = inhibition | Potency
CC1CCc2c(sc(NC(=O)COC(=O)C3CCCO3)c2C#N)C1 (stereo not drawn) | inconclusive: -0.295% | –
CN1c2ccccc2C(C)(C)C12C=Nc1c(ccc3ccccc13)O2 (stereo not drawn) | inactive: -8.04% | –
Cc1cccc(N2C(=O)CC(N3CCN(C(=O)c4ccccc4)CC3)C2=O)c1 (stereo not drawn) | inconclusive: -0.0915% | –
